Patent US20040265918A1
No constants are given. Whether binding was seen depends on the method and setting. Some binding calls cover weakened binding; strength is not graded here.

The chains behind the UniProt entries cited, without tags or fusion partners. Residues count along the entry.
UniProt Q9QYF3, residues 2-1828: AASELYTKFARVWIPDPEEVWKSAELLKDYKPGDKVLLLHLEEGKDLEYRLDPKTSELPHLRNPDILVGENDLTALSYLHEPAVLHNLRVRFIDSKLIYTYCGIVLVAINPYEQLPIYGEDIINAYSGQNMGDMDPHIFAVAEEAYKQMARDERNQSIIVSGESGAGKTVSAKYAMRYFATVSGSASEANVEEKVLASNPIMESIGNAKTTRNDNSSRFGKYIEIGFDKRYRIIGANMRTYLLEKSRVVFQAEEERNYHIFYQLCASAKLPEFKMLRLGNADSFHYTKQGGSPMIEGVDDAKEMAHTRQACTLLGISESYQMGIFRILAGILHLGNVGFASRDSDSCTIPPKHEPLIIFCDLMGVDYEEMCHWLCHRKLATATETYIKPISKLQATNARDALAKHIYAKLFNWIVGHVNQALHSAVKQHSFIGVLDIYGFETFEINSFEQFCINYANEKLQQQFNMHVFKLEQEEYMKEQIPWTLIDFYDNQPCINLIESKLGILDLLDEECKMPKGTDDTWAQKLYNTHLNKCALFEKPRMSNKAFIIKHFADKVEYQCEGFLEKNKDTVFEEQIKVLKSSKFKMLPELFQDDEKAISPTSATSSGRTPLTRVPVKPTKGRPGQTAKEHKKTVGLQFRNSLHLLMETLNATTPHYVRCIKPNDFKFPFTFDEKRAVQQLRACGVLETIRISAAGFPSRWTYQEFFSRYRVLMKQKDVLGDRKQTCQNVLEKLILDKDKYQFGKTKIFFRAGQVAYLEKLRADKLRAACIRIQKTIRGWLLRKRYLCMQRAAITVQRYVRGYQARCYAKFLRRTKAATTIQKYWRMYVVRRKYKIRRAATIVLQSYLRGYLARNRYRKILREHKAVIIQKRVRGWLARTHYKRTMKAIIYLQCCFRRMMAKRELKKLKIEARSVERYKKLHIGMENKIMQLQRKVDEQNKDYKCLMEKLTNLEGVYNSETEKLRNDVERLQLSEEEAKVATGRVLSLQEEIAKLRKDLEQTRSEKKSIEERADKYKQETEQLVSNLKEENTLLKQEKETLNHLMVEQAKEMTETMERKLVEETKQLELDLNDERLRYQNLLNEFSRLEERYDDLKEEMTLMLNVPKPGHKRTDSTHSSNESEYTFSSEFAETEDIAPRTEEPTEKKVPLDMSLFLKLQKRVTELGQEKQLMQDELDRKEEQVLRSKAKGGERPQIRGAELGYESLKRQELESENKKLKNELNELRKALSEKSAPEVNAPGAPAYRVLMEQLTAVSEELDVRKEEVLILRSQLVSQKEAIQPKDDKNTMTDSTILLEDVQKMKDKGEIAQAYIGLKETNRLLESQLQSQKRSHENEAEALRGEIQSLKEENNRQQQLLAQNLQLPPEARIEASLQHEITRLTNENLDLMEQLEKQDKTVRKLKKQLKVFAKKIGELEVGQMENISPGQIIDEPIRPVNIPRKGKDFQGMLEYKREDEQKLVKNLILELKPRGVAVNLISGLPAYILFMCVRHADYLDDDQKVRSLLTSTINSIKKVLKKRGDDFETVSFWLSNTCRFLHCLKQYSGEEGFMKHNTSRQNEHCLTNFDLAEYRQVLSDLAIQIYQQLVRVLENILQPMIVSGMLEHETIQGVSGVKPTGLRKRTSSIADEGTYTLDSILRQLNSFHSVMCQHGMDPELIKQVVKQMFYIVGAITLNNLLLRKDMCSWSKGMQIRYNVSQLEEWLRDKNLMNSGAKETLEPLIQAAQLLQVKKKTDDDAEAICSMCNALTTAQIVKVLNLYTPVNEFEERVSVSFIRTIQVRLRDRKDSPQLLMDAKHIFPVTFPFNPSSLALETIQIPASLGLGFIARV

Target: myosin V (native, F-actin bound, in rat astrocyte lysates) (rat) (UniProt Q9QYF3)
Experiment: recap of the experiments of the earlier example

binding: binds
B1: ?TRα2 (truncated thyroid hormone receptor α2) (receptor, rat, UniProt P63059 256-492, looked up)
chain: MEIMSLRAAVRYDPESDTLTLSGEMAVKREQLKNGGLGVVSDAIFELGKSLSAFNLDDTEVALLQAVLLMSTDRSGLLCVDKIEKSQEAYLLAFEHYVNHRKHNIPHFWPKLLMKEREVQSSILYKGAAAEGRPGGSLGVHPEGQQLLGMHVVQGPQVRQLEQQFGEAGSLRGPVLQHQSPKSPQQRLLELLHRSGILHSRAVCGEDDSSEASSLSSSSSDEDTEVFEDLAGKAASP
